No constants are given. Whether binding was seen depends on the method and setting. In cells and extracts the contact can be indirect. A result given as binding can be weak or reduced; the word gives no strength.

Amino acid sequences for entries named in this document (tags omitted). A change or cut given only in a name is not applied to a line headed by its entry.
UniProt A0AAF0Z3N3: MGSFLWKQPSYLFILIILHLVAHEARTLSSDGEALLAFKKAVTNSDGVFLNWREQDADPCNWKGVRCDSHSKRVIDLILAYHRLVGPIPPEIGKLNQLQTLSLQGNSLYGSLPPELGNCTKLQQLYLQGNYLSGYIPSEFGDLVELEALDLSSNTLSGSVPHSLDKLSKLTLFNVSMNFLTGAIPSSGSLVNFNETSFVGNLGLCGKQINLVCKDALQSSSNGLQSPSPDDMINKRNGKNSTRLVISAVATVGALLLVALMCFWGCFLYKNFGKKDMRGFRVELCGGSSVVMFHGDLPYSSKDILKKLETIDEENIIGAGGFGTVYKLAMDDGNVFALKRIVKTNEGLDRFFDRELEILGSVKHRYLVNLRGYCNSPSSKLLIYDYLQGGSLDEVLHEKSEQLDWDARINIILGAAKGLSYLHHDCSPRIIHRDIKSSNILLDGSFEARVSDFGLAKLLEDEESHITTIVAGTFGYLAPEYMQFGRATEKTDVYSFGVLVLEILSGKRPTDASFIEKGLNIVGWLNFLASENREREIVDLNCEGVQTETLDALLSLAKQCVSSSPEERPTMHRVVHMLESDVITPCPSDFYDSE
UniProt A0AAF0Z240: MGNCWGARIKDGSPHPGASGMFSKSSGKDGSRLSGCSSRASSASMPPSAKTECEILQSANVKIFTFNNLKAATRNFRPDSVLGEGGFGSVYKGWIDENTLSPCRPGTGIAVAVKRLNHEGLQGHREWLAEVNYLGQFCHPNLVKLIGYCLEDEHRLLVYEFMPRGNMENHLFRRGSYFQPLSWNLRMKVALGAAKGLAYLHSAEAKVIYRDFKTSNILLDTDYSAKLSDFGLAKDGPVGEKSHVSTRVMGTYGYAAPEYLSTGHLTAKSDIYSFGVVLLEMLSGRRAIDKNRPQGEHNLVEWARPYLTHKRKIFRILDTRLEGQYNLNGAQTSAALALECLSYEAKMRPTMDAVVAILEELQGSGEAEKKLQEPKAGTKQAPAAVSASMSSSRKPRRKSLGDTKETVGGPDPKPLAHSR

Assay in all cases: split reporter; split-luciferase complementation (SLC); cLUC and nLUC fusions co-infiltrated into N. benthamiana leaves, 1 mM luciferin sprayed two days after, luminescence imaged
Assay [1] addresses cLUC-ZmWAKL^Q (maize (Zea mays), inbred line Q11).
Assay [2] has as its target ZmWAKL^Q-nLUC (maize (Zea mays), inbred line Q11).
For assay [3], the target named is ZmWAKL^Y-nLUC (maize (Zea mays), inbred line Y32).
The target in assay [4] is ZmWIK-nLUC (maize (Zea mays)).

Consider “ZmWIK-nLUC (from UniProt A0AAF0Z3N3) (receptor)”, for which, in assay [1], the binding entry is “binds”.

“cLUC-ZmBLK1 (from UniProt A0AAF0Z240) (enzyme)”: the binding entry in assay [2], in assay [3] and in assay [4] was “binds” in each case.

The record behind these values is article PMC10864183.
